Many values rest on one well or one pass, so single values are uncertain.
Compound: [O-][N+](C(C1=C(C(O)=C2)NC(C(C=C3)=CC=C3Cl)C4C1C=CC4)=C2Cl)=O
Experiment: melting temperature shift (compound 7 minus DMSO); higher = compound stabilises the protein
Conditions: 10 µM
Protocol: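 Thermal proteome profiling (TMT mass spectrometry) in intact DAOY medulloblastoma cells or DAOY lysates treated with 10 µM compound 7 or DMSO, heated at 10 temperatures from 40.5 to 73.8 °C for 3 min. Melting curves were fitted with the Bioconductor TPP package, and the melting point difference between compound and vehicle is reported per protein (single curve per condition).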

Amino acid sequences for entries named in this document (tags omitted). A change or cut given only in a name is not applied to a line headed by its entry.
UniProt Q96I15: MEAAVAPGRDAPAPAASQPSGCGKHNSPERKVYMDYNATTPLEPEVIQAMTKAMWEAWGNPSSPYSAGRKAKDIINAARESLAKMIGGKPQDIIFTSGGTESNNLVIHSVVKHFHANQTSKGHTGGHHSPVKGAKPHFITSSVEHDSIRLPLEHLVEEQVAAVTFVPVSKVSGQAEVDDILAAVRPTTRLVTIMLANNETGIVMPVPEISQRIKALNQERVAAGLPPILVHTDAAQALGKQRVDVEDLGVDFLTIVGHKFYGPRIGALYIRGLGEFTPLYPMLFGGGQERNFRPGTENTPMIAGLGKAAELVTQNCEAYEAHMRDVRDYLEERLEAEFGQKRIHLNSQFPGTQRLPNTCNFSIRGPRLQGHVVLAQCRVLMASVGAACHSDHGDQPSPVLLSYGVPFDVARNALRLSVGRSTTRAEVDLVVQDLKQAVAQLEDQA
UniProt Q9NR33: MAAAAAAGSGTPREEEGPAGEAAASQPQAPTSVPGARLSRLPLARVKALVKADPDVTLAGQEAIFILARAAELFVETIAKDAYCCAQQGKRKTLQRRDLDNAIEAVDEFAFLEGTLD
UniProt Q15004: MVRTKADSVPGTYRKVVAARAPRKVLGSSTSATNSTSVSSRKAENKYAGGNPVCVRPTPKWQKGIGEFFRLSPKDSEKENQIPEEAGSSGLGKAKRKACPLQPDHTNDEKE
UniProt Q9P2E5: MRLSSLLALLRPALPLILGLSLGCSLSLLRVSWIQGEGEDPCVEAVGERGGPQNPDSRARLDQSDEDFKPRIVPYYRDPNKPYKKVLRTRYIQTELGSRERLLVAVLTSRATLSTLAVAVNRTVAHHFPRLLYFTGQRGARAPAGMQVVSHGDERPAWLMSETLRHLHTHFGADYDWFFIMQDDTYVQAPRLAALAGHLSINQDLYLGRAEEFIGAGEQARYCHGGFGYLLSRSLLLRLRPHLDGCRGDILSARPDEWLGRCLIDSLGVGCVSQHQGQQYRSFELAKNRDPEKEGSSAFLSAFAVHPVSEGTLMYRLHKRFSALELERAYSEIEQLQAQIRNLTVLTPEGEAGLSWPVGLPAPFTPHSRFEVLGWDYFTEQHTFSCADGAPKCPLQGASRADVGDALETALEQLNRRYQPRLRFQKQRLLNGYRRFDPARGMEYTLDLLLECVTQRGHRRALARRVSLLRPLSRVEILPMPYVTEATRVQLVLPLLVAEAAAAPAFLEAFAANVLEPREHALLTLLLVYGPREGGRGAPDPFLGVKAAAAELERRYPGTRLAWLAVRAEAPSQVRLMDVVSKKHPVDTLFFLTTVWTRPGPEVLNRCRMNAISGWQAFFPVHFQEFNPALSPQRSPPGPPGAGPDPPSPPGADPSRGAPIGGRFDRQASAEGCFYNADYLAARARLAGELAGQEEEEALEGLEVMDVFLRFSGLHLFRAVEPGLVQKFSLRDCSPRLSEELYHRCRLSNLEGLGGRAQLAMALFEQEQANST
UniProt Q9BRX5: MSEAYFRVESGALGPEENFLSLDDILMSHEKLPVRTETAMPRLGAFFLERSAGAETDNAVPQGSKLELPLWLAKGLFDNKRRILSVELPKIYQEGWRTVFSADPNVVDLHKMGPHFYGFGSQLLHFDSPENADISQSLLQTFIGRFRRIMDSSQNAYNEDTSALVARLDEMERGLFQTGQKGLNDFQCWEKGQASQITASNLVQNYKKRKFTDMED
UniProt O00139: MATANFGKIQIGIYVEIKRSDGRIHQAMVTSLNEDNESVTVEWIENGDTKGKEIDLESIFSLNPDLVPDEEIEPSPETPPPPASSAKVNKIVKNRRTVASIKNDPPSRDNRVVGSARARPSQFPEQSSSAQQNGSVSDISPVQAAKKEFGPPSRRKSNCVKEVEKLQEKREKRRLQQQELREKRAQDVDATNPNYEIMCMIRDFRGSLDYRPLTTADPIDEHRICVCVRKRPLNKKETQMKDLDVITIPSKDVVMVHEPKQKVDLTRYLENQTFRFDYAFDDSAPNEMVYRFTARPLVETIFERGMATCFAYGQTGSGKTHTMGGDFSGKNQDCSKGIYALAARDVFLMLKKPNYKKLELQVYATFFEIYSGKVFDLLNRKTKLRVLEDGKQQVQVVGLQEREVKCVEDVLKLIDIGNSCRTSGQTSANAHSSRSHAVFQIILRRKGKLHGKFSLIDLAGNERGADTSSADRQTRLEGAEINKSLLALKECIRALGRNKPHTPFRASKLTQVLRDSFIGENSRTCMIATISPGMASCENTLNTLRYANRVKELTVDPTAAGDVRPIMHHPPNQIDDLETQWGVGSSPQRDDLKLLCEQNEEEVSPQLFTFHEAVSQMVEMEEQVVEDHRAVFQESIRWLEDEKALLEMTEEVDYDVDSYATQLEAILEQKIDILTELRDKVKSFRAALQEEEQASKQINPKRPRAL
UniProt Q96CN9: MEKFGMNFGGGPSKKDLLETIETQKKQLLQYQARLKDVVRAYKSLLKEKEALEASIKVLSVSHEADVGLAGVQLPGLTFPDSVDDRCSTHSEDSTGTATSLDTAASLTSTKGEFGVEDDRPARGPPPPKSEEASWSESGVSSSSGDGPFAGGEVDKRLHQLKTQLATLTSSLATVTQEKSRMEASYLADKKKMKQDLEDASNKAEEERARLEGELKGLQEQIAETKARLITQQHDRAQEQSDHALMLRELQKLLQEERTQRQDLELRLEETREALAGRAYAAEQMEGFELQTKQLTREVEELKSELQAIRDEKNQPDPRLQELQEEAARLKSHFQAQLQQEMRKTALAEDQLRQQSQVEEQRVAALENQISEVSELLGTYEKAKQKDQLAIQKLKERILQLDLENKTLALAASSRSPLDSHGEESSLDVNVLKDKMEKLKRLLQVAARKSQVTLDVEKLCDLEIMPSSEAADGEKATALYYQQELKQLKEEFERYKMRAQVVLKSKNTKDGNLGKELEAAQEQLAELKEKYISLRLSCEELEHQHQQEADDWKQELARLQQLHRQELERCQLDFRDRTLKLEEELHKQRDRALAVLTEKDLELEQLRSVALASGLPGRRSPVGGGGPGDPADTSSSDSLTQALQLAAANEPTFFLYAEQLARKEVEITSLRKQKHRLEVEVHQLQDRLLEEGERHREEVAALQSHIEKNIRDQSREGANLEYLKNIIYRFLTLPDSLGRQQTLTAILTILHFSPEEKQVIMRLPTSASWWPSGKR
UniProt Q9HC07: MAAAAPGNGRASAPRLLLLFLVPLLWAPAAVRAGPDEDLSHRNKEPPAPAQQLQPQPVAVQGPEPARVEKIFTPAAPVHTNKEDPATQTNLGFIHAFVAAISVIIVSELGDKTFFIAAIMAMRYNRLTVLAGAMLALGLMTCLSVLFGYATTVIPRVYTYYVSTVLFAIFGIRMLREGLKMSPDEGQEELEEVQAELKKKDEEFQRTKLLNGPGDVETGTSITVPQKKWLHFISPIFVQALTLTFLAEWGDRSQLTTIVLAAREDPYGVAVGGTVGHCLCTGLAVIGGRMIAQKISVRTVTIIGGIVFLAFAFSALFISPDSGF
UniProt Q75QN2, whole entry: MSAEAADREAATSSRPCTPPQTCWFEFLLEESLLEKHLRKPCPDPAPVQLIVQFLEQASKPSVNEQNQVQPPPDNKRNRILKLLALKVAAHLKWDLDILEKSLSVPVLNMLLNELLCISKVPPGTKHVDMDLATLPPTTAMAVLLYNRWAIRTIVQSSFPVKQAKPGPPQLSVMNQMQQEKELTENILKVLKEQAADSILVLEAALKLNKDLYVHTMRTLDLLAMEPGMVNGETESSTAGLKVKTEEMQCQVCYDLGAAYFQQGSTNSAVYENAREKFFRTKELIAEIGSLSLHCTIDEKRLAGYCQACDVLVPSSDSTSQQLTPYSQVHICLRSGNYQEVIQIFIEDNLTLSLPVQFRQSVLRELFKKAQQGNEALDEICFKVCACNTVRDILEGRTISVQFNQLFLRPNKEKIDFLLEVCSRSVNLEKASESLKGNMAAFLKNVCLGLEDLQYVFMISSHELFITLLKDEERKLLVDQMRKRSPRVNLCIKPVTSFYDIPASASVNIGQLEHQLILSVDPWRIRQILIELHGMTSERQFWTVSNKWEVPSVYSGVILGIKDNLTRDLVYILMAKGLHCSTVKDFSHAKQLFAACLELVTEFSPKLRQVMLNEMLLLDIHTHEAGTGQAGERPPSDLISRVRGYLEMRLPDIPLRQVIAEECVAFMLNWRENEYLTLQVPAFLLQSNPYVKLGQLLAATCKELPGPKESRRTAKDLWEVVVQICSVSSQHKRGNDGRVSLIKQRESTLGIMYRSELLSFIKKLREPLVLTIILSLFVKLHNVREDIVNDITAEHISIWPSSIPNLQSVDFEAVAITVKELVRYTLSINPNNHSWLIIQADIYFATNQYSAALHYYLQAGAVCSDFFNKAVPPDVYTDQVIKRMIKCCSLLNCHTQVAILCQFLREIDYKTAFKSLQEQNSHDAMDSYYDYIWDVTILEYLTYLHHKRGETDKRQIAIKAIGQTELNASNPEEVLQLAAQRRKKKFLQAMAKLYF
UniProt Q15633: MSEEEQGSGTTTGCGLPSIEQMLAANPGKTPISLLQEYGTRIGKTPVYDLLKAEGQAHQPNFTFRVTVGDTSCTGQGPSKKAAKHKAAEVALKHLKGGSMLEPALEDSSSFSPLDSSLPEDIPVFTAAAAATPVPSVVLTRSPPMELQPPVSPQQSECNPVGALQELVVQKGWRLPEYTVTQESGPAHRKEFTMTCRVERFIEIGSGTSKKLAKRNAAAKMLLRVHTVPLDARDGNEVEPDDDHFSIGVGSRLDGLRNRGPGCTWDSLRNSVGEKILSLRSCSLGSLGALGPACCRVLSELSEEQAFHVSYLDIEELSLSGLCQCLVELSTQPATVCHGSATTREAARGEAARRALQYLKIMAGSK
UniProt Q96PZ2, whole entry: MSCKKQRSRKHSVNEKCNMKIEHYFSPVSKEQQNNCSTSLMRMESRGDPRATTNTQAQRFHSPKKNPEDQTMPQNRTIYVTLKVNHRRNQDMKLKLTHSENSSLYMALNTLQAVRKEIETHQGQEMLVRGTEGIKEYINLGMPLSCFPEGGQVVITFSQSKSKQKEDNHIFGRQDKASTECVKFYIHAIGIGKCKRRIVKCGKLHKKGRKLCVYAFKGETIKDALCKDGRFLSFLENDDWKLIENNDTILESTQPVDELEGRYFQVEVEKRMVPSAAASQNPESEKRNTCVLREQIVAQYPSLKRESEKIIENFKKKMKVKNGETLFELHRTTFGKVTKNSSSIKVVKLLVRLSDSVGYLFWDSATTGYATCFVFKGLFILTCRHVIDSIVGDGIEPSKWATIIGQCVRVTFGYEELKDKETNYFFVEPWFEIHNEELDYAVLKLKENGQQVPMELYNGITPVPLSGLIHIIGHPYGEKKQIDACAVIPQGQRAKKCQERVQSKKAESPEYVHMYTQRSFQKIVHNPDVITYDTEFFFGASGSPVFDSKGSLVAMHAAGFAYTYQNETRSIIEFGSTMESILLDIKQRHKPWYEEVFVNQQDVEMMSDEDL
UniProt P62745, whole entry: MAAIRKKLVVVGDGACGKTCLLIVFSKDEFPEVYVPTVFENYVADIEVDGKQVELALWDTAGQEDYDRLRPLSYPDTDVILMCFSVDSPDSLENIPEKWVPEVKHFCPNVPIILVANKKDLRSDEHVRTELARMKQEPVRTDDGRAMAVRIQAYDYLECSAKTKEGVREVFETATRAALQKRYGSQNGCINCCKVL
UniProt P29034: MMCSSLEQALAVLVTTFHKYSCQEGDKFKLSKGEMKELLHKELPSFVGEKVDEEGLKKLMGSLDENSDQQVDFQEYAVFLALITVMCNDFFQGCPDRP
UniProt Q9UHW5, whole entry: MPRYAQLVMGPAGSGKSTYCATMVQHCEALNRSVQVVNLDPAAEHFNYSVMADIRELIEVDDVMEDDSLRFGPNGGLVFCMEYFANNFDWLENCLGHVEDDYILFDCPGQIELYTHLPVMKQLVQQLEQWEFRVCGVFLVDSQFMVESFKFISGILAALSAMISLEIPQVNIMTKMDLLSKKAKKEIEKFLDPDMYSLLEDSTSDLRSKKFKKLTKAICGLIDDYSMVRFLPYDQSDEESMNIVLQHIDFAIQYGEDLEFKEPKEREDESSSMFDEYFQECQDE
UniProt O60551: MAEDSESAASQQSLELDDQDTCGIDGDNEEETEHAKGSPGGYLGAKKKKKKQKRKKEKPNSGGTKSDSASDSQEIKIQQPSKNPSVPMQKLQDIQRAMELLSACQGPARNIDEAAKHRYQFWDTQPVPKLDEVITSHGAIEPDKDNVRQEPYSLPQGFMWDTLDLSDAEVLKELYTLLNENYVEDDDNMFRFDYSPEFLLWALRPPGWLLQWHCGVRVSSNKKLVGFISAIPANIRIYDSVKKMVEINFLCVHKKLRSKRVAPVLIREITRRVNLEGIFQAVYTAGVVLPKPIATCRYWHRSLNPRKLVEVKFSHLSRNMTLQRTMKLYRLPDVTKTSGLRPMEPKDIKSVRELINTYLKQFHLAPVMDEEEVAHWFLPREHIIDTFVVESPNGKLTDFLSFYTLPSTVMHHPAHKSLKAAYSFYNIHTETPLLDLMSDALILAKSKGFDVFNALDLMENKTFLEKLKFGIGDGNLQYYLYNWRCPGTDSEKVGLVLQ

[1] = system: DAOY cell lysate, treatment time: 20 min, 4 °C
[2] = system: intact DAOY cells, treatment time: 90 min, 37 °C

| Target | melting temperature shift [1] [°C] | melting temperature shift [2] [°C] |
| --- | --- | --- |
| SCLY (UniProt Q96I15) | -0.988 | -0.395 |
| RAB21 (UniProt Q9UL25) | 0.46 | -0.287 |
| BCL9L (UniProt Q86UU0) | -1.53 | – |
| UniProt Q9Y6A9 | 3.68 | – |
| POLE4 (UniProt Q9NR33) | -1.17 | – |
| KIAA0101 (UniProt Q15004) | 1.85 | – |
| CHPF2 (UniProt Q9P2E5) | 1.31 | 2.89 |
| JAK3 (UniProt P52333) | 1.69 | – |
| RAP1A (UniProt P62834) | -0.523 | -2.85 |
| UniProt Q8IXK0 | -0.649 | – |
| GINS3 (UniProt Q9BRX5) | -0.0137 | -1.44 |
| UniProt Q9P0W8 | – | 0.265 |
| KIF2A (UniProt O00139) | -1.25 | -0.143 |
| GCC1 (UniProt Q96CN9) | -0.24 | -0.998 |
| FAM129A (UniProt Q9BZQ8) | 0.532 | 0.0635 |
| TMEM165 (UniProt Q9HC07) | 2.07 | 2.46 |
| UniProt Q75QN2 | -0.389 | -2.21 |
| HEATR3 (UniProt Q7Z4Q2) | -0.355 | 0.0437 |
| TARBP2 (UniProt Q15633) | 0.259 | – |
| UniProt Q96PZ2 | 3.4 | 0.325 |
| SAAL1 (UniProt Q96ER3) | -1.6 | 0.709 |
| WDR6 (UniProt Q9NNW5) | -0.17 | 0.385 |
| PDLIM7 (UniProt Q9NR12) | -0.205 | -0.0136 |
| VPS29 (UniProt Q9UBQ0) | -0.831 | -0.654 |
| RHOB (UniProt P62745) | 2.68 | -4.18 |
| UniProt P29034 | -2.44 | 9.29 |
| GPN3 (UniProt Q9UHW5) | -0.163 | -2.75 |
| UniProt O60551 | 0.521 | 0.691 |

In a second layout: results already given
Target | melting temperature shift [1] [°C] | melting temperature shift [2] [°C]
SCLY (UniProt Q96I15) | -0.988 | -0.395
TMEM165 (UniProt Q9HC07) | 2.07 | 2.46
TARBP2 (UniProt Q15633) | 0.259 | –
SAAL1 (UniProt Q96ER3) | -1.6 | 0.709
PDLIM7 (UniProt Q9NR12) | -0.205 | -0.0136
VPS29 (UniProt Q9UBQ0) | -0.831 | -0.654
